The values that follow come from patent US20150335565A1, “IRRITATION MITIGATING POLYMERS AND USES THEREFOR” (LUBRIZOL ADVANCED MATERIALS, INC., priority 2012, published 2015).

The subject of this data set is Epiderm™ Human Tissue Model (EPI-200). Kind of data set: MTT tissue viability assay (ET-50 protocol) for skin irritancy. The settings on record: for Ave. (OD): 570 nm; for OD (570 nm): single test well (Rep), sulfate. Here is the method:
Mitigation of skin irritancy induced by sodium dodecyl sulfate (SDS) surfactant dosed with the polymer of Example 56 is assessed in the Epiderm™ Human Tissue Model (EPI-200) bioassay conducted by MatTek Corporation, Ashland, Mass. The MatTek bioassay utilizes human derived epidermal keratinocytes (NHEK) which have been cultured to form a multilayered, highly differentiated model of the human epidermis.
The MTT tissue viability assay measures the NAD(P)H dependent microsomal enzyme reduction of MTT (and to a lesser extent, the succinate dehydrogenase reduction of MTT) after exposure to a treated skin culture test sample for various exposure times. The duration of exposure resulting in a 50% decrease in MTT conversion in test formulation treated EpiDerm™ cultures, relative to control cultures, is determined (ET-50).
A SDS surfactant/polymer test formulation is formulated from the components set forth in Table 10 and evaluated for irritancy potential using the MTT viability assay. Test samples containing neat SDS surfactant (no polymer) are formulated for comparative purposes.
Skin tissue culture inserts (Cat. No. EPI-200) are pre-incubated in the wells of 6-well plates containing 0.9 ml of MatTek assay medium (Cat. No. EPI-100-ASY) for 1 hr. at 37° C. in a humidified atmosphere of 5% CO2 in air. The 6-well plates containing the tissue culture inserts are removed from the incubator and the assay media is aspirated from the wells and replaced by an additional aliquot of 0.9 ml of pre-warmed (37° C.) assay media. For each exposure time wells are then dosed (2 repetitions) with 100 μl of the test formulations set forth in Table 10 (3 tissue culture wells are dosed with 100 μl ultra-pure water as a negative control for each of the test candidates). In addition, 100 μl of a positive control formulation (1% Triton X-100 in ultrapure water) is dosed into tissue culture wells (3 repetitions for each exposure time), as well as 3 repetitions of ultrapure water as a negative control. The exposure times of the test formulations, negative control and positive control are set forth below.
MTT assay plates are prepped by preparing a 24-well plate by adding 300 μl of MTT reagent solution to an appropriate number of wells to accommodate the test. The MTT reagent is utilized at a concentration of 1 mg/ml of MTT diluted in Dulbecco's Modified Eagle Medium (DMEM). The MTT/DMEM solution is centrifuged and decanted to remove any precipitate before use.
After exposure times of 60 (1 hr.), 120 (2 hrs.) and 210 (3.5 hrs.) minutes to the test solutions, the tissue cultures are removed from the incubator and thoroughly rinsed (2 times) with Dulbecco's phosphate buffered saline (DPBS) to remove the test material. The negative control is exposed for 4 hours and the positive control is exposed for time periods of 4, 6, 8, and 10 hours. Any remaining rinse media is decanted from the top of the tissue cultures. Each tissue culture insert is transferred to an appropriately labeled well of the 24-well plate containing the MTT reagent solution and placed back in the incubator. After 30 minutes reaction with the MTT reagent, the tissue cultures are removed from the incubator. Each tissue culture insert is removed from its well and the bottom is gently blotted with a lab tissue. The inserts are immersed into a labeled 24-well extraction plate containing 2 ml of isopropanol extractant solution. The 24-well extraction plate is covered with aluminum foil (to protect the samples from light) and placed into a sealable plastic bag to minimize evaporation of the extractant solution. The sealed 24-well extraction plate is set on an orbital shaker and gently shaken for 2 hours at ambient room temperature (approximately 20° C.).
Upon the conclusion of the extraction period, the extractant liquid within each tissue culture insert is decanted back into the well from which it was taken and thoroughly mixed with the extractant solution contained in the well.
On the technique in general: Formazan colour is commonly taken as a measure of viable cells.

Values joined by “and” are separate entries in the source; they are usually repeats but may differ in a detail not shown here. Equal values may be shown once.

On to `CCCCCCCCCCCCOS(=O)(=O)[O-].[Na+]` [Neat Surfactant, sodium dodecyl sulfate], for which the “Ave. (OD)” value is reported as 0.733 (exposure time 1 hr), 0.285 (exposure time 2 hr) and 0.200 (exposure time 3.5 hr). The “OD (570 nm)” value was 0.647 and 0.818 (exposure time 1 hr); 0.322 and 0.248 (exposure time 2 hr); 0.179 and 0.221 (exposure time 3.5 hr).
